Values of other authors in patent publication US20030130799A1, “Structure/properties correlation with membrane affinity profile” (priority 2001, published 2003).

Conditions: known ADME properties of the parent compound; cited from earlier work

For `CC(C)NCC(O)COc1ccc(CC(N)=O)cc1` (stereo not shown) [atenolol], the CL is listed as 0.140 L/min.
